± gives the standard deviation of the averaged measurements. The effect of the compound repeats well; differences between the knockouts mostly do not.
Test system: BT-20
Experiment: relative cell number vs DMSO control (72 h) (% of DMSO); higher = less growth inhibition (more cells)
Protocol: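 QMAP-Seq: a pool of 5 breast cancer cell lines (ZR-75-1, SKBR3, HCC-38, MDA-MB-231, BT-20), each carrying 12 doxycycline-inducible Cas9 sgRNA perturbations (11 knockouts plus non-targeting sgNT), was treated with compounds for 72 h at four 10-fold doses (10 nM-10 uM or 1 nM-1 uM range). Barcodes were amplified and sequenced, and cell number was interpolated from 293T spike-in standard curves. The result is expressed as % of the median of DMSO wells. Two biological replicates.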

CN(C)c1cc(NC(=O)CNC(C)(C)C)c(O)c2c1C[C@H]1C[C@H]3[C@H](N(C)C)C(O)=C(C(N)=O)C(=O)[C@@]3(O)C(O)=C1C2=O [Tigecycline]
Settings | relative cell number
sgRNA knockout: sgATF3, 10 nM | 94.3 ± 14
sgRNA knockout: sgATF3, 100 nM | 111 ± 15
sgRNA knockout: sgATF3, 1000 nM | 93.1 ± 17
sgRNA knockout: sgATF3, 10000 nM | 107 ± 8.4
sgRNA knockout: sgATF4, 10 nM | 95.2 ± 18
sgRNA knockout: sgATF4, 100 nM | 105 ± 24
sgRNA knockout: sgATF4, 1000 nM | 109 ± 26
sgRNA knockout: sgATF4, 10000 nM | 95.7 ± 5.2
sgRNA knockout: sgATF6, 10 nM | 104 ± 3.7
sgRNA knockout: sgATF6, 100 nM | 115.5 ± 0.61
sgRNA knockout: sgATF6, 1000 nM | 92.8 ± 18
sgRNA knockout: sgATF6, 10000 nM | 114 ± 20
sgRNA knockout: sgATG7, 10 nM | 96.2 ± 6.1
sgRNA knockout: sgATG7, 100 nM | 105 ± 14
sgRNA knockout: sgATG7, 1000 nM | 98.7 ± 5.2
sgRNA knockout: sgATG7, 10000 nM | 105 ± 15
sgRNA knockout: sgERN1, 10 nM | 97.5 ± 5.1
sgRNA knockout: sgERN1, 100 nM | 97.2 ± 5.7
sgRNA knockout: sgERN1, 1000 nM | 103 ± 5.1
sgRNA knockout: sgERN1, 10000 nM | 91.7 ± 20
sgRNA knockout: sgHSF1, 10 nM | 105 ± 2.9
sgRNA knockout: sgHSF1, 100 nM | 91.3 ± 1.2
sgRNA knockout: sgHSF1, 1000 nM | 106 ± 13
sgRNA knockout: sgHSF1, 10000 nM | 99.7 ± 13
sgRNA knockout: sgHSF2, 10 nM | 94.9 ± 27
sgRNA knockout: sgHSF2, 100 nM | 75.7 ± 2.9
sgRNA knockout: sgHSF2, 1000 nM | 102 ± 10
sgRNA knockout: sgHSF2, 10000 nM | 95.8 ± 7.5
sgRNA knockout: sgKEAP1, 10 nM | 99.8 ± 2.7
sgRNA knockout: sgKEAP1, 100 nM | 94.1 ± 23
sgRNA knockout: sgKEAP1, 1000 nM | 93.1 ± 3.6
sgRNA knockout: sgKEAP1, 10000 nM | 109 ± 4.1
sgRNA knockout: sgNFE2L2, 10 nM | 106 ± 5.3
sgRNA knockout: sgNFE2L2, 100 nM | 84.5 ± 12
sgRNA knockout: sgNFE2L2, 1000 nM | 100 ± 9
sgRNA knockout: sgNFE2L2, 10000 nM | 100 ± 11
sgRNA knockout: sgSLC35F2, 10 nM | 91.5 ± 10
sgRNA knockout: sgSLC35F2, 100 nM | 89.3 ± 23
sgRNA knockout: sgSLC35F2, 1000 nM | 109.8 ± 0.93
sgRNA knockout: sgSLC35F2, 10000 nM | 117.3 ± 0.3
sgRNA knockout: sgXBP1, 10 nM | 93 ± 8.3
sgRNA knockout: sgXBP1, 100 nM | 106 ± 19
sgRNA knockout: sgXBP1, 1000 nM | 111 ± 3.1
sgRNA knockout: sgXBP1, 10000 nM | 114 ± 14

C[C@@H](Oc1cc(-c2cnn(C3CCNCC3)c2)cnc1N)c1c(Cl)ccc(F)c1Cl [Crizotinib]
Settings | relative cell number
sgRNA knockout: sgATF3, 10 nM | 91.7 ± 19
sgRNA knockout: sgATF3, 100 nM | 89.2 ± 5.9
sgRNA knockout: sgATF3, 1000 nM | 80.5 ± 20
sgRNA knockout: sgATF3, 10000 nM | 35.9 ± 6.8
sgRNA knockout: sgATF4, 10 nM | 112 ± 11
sgRNA knockout: sgATF4, 100 nM | 93.2 ± 1.6
sgRNA knockout: sgATF4, 1000 nM | 75.4 ± 11
sgRNA knockout: sgATF4, 10000 nM | 37.7 ± 2.6
sgRNA knockout: sgATF6, 10 nM | 92.5 ± 14
sgRNA knockout: sgATF6, 100 nM | 98.7 ± 9.2
sgRNA knockout: sgATF6, 1000 nM | 87.8 ± 28
sgRNA knockout: sgATF6, 10000 nM | 43.9 ± 8.2
sgRNA knockout: sgATG7, 10 nM | 102 ± 30
sgRNA knockout: sgATG7, 100 nM | 93.272 ± 0.045
sgRNA knockout: sgATG7, 1000 nM | 92.1 ± 0.98
sgRNA knockout: sgATG7, 10000 nM | 50.7 ± 7.7
sgRNA knockout: sgERN1, 10 nM | 92.5 ± 28
sgRNA knockout: sgERN1, 100 nM | 87.4 ± 9.5
sgRNA knockout: sgERN1, 1000 nM | 94.3 ± 14
sgRNA knockout: sgERN1, 10000 nM | 43.3 ± 4.6
sgRNA knockout: sgHSF1, 10 nM | 101 ± 9.9
sgRNA knockout: sgHSF1, 100 nM | 88.9 ± 21
sgRNA knockout: sgHSF1, 1000 nM | 81.2 ± 18
sgRNA knockout: sgHSF1, 10000 nM | 34.3 ± 8.8
sgRNA knockout: sgHSF2, 10 nM | 69.5 ± 4
sgRNA knockout: sgHSF2, 100 nM | 109 ± 16
sgRNA knockout: sgHSF2, 1000 nM | 72.3 ± 3.8
sgRNA knockout: sgHSF2, 10000 nM | 42.9 ± 4.2
sgRNA knockout: sgKEAP1, 10 nM | 79.3 ± 4.8
sgRNA knockout: sgKEAP1, 100 nM | 83.5 ± 12
sgRNA knockout: sgKEAP1, 1000 nM | 81.43 ± 0.1
sgRNA knockout: sgKEAP1, 10000 nM | 39.2 ± 7.6
sgRNA knockout: sgNFE2L2, 10 nM | 91.5 ± 4
sgRNA knockout: sgNFE2L2, 100 nM | 95.3 ± 7
sgRNA knockout: sgNFE2L2, 1000 nM | 86.9 ± 5.7
sgRNA knockout: sgNFE2L2, 10000 nM | 32 ± 5.9
sgRNA knockout: sgSLC35F2, 10 nM | 100 ± 13
sgRNA knockout: sgSLC35F2, 100 nM | 114 ± 5.1
sgRNA knockout: sgSLC35F2, 1000 nM | 84.6 ± 15
sgRNA knockout: sgSLC35F2, 10000 nM | 49.2 ± 1.5
sgRNA knockout: sgXBP1, 10 nM | 97.4 ± 4.5
sgRNA knockout: sgXBP1, 100 nM | 98.8 ± 6.2
sgRNA knockout: sgXBP1, 1000 nM | 78.9 ± 11
sgRNA knockout: sgXBP1, 10000 nM | 44.1 ± 2.4
